{"source": "patent US20230357373A1", "about": "“METHODS AND COMPOSITIONS FOR […] TREATING FIBROSIS” (Mie University, priority 2019, published 2023)", "assay": "Competitive enzyme immune assay of corisin in bronchoalveolar lavage fluid", "set-up": "species or system human", "details": "IPF patients"}
{"sequence": "IVMPESSGNPNAVNPAGYR (listed as Staphylococcus cohnii) [corisin, peptide of 19 amino acid residues, segment of transglycosylase 351 IsaA of Staphylococcus nepalensis strain CNDG]", "values": [{"measurement": "level of corisin in bronchoalveolar lavage fluid, females", "setting": "females", "result": "58.8 ± 10.7", "unit": "µg/mL"}, {"measurement": "level of corisin in bronchoalveolar lavage fluid, males", "setting": "males", "result": "50.6 ± 4.9", "unit": "µg/mL"}]}
